Assay results taken from the supplement of paper PMC11732987, “Enantioselective OTUD7B fragment discovery through chemoproteomics screening and high-throughput optimisation” (Communications Chemistry, 2025).
The list shows a part of the results. The data scatter; read single values as rough.

Chains of the proteins cited; added tags and fusions are not shown. Lines headed by an entry give the natural chain unless they say otherwise; changes in a name come on top. Residues count along the entry.
UniProt O00411, 725-754: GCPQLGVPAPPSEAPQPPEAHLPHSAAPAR
UniProt O95685: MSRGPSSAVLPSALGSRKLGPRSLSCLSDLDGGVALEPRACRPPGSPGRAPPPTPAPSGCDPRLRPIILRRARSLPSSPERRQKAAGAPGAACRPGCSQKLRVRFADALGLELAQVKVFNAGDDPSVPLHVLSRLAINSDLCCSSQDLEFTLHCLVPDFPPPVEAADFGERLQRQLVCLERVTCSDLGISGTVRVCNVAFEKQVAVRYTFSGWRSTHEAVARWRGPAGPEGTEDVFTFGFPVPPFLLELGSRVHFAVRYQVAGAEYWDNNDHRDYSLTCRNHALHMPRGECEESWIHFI
UniProt P30044, 192-214: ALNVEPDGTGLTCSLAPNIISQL
UniProt Q9BUI4: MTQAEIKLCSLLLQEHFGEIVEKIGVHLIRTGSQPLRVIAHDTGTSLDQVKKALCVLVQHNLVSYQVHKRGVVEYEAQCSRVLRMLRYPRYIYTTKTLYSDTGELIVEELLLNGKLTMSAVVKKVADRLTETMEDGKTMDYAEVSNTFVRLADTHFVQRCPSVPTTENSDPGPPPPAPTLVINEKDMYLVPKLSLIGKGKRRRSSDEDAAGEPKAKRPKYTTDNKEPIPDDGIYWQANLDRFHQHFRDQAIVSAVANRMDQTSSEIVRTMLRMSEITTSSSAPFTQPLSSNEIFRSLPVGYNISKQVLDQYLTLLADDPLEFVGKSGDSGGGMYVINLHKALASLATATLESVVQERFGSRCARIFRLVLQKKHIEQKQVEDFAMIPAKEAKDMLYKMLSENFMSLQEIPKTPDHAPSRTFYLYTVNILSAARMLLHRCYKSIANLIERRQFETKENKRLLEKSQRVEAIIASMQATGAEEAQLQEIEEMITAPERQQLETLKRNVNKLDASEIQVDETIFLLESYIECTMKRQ
UniProt P78527, whole entry, looked up: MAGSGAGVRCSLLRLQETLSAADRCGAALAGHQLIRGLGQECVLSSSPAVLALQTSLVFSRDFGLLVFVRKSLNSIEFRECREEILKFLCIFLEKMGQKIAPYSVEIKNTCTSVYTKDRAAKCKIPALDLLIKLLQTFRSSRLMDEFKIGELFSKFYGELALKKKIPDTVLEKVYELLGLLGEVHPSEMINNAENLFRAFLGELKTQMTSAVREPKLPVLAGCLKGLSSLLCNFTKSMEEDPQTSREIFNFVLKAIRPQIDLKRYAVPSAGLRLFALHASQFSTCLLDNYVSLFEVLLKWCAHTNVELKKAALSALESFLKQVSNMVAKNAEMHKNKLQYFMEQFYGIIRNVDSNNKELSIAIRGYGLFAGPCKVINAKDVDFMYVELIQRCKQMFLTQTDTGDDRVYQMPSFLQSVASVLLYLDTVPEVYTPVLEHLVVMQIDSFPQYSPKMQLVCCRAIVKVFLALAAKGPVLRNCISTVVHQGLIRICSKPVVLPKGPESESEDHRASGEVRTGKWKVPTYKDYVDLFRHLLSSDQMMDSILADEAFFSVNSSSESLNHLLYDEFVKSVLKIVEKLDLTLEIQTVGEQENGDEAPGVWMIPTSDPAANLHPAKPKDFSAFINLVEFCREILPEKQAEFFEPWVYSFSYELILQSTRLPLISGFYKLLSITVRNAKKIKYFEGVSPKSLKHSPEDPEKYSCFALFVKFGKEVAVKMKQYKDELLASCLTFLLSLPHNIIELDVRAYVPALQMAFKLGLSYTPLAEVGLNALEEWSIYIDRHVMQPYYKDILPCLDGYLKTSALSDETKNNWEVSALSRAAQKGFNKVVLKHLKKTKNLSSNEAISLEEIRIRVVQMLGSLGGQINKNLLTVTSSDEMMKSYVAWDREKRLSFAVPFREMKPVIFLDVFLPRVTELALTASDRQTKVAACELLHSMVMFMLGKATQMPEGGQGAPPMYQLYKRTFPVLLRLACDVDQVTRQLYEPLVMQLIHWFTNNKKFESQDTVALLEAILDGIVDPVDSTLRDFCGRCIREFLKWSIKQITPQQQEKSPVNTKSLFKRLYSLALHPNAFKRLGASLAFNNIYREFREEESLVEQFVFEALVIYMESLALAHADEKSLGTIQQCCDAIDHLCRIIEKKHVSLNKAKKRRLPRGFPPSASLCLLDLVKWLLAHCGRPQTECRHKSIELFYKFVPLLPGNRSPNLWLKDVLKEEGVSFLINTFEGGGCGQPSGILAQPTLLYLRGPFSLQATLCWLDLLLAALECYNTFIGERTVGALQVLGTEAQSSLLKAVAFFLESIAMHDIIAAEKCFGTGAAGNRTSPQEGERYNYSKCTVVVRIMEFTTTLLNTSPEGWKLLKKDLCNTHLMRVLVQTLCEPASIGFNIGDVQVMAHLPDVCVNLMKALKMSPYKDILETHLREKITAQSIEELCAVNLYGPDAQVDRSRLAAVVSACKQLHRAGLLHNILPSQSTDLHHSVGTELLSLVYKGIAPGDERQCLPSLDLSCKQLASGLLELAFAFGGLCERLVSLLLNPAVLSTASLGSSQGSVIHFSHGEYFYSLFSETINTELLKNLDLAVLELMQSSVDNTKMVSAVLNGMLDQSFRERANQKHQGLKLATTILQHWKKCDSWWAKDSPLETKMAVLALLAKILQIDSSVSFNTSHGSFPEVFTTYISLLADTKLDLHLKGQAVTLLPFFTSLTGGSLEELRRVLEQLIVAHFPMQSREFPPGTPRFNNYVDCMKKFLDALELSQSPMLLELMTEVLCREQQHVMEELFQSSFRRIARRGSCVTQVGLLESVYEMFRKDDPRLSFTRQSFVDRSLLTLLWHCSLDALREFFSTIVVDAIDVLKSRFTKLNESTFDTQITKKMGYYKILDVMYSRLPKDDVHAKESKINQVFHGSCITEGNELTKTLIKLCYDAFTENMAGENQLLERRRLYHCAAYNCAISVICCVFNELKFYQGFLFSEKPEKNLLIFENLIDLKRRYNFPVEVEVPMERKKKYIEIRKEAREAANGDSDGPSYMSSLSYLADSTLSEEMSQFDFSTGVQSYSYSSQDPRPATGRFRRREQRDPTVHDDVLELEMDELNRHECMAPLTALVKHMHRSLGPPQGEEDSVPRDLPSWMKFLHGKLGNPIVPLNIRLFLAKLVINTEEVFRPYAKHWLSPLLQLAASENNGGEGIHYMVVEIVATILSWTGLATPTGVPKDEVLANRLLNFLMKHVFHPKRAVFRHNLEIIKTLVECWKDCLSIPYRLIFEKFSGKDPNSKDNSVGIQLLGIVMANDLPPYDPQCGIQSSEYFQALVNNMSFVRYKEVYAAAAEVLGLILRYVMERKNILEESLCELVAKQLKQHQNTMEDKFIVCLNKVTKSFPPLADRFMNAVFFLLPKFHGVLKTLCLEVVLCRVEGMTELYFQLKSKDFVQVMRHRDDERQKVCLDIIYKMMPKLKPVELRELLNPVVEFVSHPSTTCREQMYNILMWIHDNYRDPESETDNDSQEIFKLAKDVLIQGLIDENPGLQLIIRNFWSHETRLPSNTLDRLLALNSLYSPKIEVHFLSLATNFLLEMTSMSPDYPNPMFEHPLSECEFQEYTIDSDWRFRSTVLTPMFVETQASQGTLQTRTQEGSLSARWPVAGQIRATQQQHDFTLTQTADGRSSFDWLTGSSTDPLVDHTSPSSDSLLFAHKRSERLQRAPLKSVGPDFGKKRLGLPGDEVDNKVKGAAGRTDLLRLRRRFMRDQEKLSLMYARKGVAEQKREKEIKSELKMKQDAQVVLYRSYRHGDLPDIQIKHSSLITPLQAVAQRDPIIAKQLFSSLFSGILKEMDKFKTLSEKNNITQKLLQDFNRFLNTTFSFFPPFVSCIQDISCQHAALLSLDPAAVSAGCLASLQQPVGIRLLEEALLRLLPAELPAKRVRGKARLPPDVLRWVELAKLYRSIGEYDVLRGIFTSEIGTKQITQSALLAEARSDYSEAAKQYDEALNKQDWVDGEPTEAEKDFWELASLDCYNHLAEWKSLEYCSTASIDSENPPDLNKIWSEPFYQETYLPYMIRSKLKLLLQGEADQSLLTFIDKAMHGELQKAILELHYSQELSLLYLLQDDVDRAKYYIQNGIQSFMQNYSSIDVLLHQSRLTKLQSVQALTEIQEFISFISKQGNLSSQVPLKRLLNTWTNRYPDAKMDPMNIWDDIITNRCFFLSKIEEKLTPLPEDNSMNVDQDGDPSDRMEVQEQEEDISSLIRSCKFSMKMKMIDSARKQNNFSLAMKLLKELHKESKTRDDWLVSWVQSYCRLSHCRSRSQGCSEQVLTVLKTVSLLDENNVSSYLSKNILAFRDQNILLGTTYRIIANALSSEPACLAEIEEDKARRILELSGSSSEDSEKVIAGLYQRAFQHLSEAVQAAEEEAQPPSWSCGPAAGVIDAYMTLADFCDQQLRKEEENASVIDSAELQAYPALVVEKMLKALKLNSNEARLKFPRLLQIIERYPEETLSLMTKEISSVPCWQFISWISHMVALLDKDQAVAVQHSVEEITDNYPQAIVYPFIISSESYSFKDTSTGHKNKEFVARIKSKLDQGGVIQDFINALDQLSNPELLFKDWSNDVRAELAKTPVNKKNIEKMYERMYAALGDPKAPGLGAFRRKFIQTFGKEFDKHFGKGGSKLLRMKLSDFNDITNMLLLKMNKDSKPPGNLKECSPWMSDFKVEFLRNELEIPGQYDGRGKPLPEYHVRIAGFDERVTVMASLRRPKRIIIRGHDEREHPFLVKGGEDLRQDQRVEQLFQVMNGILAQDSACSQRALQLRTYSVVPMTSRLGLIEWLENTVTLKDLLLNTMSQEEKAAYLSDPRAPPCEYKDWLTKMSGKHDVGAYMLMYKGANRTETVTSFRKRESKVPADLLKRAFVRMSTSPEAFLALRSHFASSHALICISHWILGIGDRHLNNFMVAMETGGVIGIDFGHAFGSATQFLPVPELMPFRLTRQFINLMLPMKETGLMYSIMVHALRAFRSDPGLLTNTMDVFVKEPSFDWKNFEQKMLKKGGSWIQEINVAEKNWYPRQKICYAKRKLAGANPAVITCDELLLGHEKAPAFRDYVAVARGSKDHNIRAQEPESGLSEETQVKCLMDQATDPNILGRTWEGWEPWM
UniProt O43395: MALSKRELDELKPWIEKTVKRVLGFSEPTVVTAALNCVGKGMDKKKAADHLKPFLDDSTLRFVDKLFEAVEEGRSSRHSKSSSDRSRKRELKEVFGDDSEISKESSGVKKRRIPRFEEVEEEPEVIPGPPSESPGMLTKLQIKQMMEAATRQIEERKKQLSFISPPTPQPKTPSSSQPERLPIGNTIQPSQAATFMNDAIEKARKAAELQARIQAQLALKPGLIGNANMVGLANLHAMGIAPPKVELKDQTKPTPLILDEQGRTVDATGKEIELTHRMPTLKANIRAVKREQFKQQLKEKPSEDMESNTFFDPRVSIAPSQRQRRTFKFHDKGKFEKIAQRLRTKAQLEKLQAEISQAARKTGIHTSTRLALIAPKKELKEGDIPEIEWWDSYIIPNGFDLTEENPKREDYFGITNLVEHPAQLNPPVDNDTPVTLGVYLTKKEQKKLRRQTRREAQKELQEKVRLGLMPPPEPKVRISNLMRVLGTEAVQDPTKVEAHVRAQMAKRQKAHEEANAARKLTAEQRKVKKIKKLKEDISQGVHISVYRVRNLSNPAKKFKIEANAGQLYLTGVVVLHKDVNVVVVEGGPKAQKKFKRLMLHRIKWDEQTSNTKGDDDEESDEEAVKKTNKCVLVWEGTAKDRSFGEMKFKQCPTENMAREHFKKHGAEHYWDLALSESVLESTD
UniProt O75864: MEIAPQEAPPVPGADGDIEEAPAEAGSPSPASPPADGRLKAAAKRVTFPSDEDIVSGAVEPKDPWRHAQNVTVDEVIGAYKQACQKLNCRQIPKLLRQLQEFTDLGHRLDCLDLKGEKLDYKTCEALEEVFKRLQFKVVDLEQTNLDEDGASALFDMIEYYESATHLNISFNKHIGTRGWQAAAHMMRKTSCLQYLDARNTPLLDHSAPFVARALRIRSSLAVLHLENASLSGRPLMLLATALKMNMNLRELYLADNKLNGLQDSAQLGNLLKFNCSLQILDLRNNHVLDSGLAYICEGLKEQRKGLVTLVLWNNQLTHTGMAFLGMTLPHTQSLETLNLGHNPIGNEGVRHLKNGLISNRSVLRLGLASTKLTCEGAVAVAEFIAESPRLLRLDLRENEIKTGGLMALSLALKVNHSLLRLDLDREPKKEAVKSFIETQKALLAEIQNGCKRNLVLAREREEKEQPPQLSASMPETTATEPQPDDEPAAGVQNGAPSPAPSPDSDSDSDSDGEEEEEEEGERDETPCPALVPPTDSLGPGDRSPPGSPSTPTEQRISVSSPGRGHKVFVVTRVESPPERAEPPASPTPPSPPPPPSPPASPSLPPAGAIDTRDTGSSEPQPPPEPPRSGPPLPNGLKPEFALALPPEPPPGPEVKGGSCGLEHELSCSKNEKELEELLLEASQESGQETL

How the values were obtained:
[1] = compound: ClCC(=O)N[C@@H]1CCCc2ccccc12; assay: log2 mean competition ratio of IA-DTB cysteine labelling (DMSO/compound) (log2 ratio); higher = stronger cysteine engagement by compound; settings: treatment time: 4 h, cell line lysate: HEK293T
Description: (§1)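 IA-DTB competitive cysteine chemoproteomics in HEK293T RIPA lysate. Lysates were treated with compound 29 or 30 at 50 or 200 µM for 4 h, then IA-DTB (500 µM, 1 h), trypsin-digested, NeutrAvidin-enriched and analysed by diaPASEF. Competition ratio = intensity DMSO / intensity compound (n=4 treated, n=64 DMSO); binding: mean log2 CR ≥ 1 and p ≤ 0.05 plus QC filters. Target is the cysteine site.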

[2] = compound: ClCC(=O)N[C@H]1CCCc2ccccc12; assay: as above; settings: treatment time: 4 h, cell line lysate: HEK293T
Description: as §1

Row | Target | log2 mean competition ratio ([1]; 50 µM) | log2 mean competition ratio ([1]; 200 µM) | log2 mean competition ratio ([2]; 50 µM) | log2 mean competition ratio ([2]; 200 µM)
1 | POLRMT C726 (UniProt O00411) | -0.00281 | -0.291 | 0.81 | -0.322
2 | PRR14L C1224 (UniProt Q5THK1) | 0.0632 | -0.0216 | 0.00053 | 0.0216
3 | PPP1R3D C291 (UniProt O95685) | -0.11 | -0.0797 | 0.171 | 0.277
4 | PRKCB C586 (UniProt P05771) | -0.134 | -0.084 | -0.295 | -0.108
5 | PRDX5 C204 (UniProt P30044) | -0.216 | -0.947 | 0.0722 | -0.437
6 | POLR3C C79 (UniProt Q9BUI4) | 0.0103 | -0.137 | 0.227 | -0.171
7 | POLR2A C233 | 0.674 | -0.0244 | 0.663 | 0.0528
8 | PRPF38B C113 (UniProt Q5VTL8) | 0.0166 | 0.11 | -0.0404 | 0.131
9 | POLRMT C413 (UniProt O00411) | 0.127 | -0.0226 | -0.578 | -0.123
10 | PRKDC C373 (UniProt P78527) | 0.214 | -0.235 | 0.277 | -0.144
11 | PPAT C496 (UniProt Q06203) | 0.0557 | 0.0196 | -0.19 | -0.0439
12 | PRMT7 C262 (UniProt Q9NVM4) | -0.00381 | -0.0286 | 0.087 | -0.0261
13 | PRKD2 C314 | -0.552 | 0.0862 | -0.415 | -0.0462
14 | PRPF3 C651 (UniProt O43395) | -0.111 | 0.271 | 0.045 | 0.25
15 | PPFIBP1 C788 (UniProt Q86W92) | 0.356 | 0.315 | 0.378 | 0.196
16 | PPP1R37 C124 (UniProt O75864) | 0.0367 | 0.393 | 0.0194 | 0.153
